In the supplement of paper PMC4604168 (melanoma cell lines):
This is one part of the list. Repeats are few or missing, and single values can be far off.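 The apoptosis fraction was the count of cleaved-PARP antibody-stained nuclei relative to all DNA-stained nuclei, imaged in 1,536-well plates. Screening doses were set so most cells survived, and baseline and induced cleaved-PARP levels vary greatly across cell lines.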

How the values were obtained:
Assay in all cases: cleaved PARP positive nuclei fraction relative to DMSO control; melanoma cells; higher = more apoptosis
Settings in all cases: library dose: low library concentration; 72 h
501Mel = tested on: 501Mel
A101D = tested on: A101D
A2058 = tested on: A2058
A375 = tested on: A375
C32 = tested on: C32
CBRC008 = tested on: CBRC008 (line from a melanoma biopsy)
CBRC014 = tested on: CBRC014 (line from a melanoma biopsy)
CBRC016 = tested on: CBRC016 (line from a melanoma biopsy)
CBRC017 = tested on: CBRC017 (line from a melanoma biopsy)
CBRC034 = tested on: CBRC034 (line from a melanoma biopsy)
COLO792 = tested on: COLO792
COLO800 = tested on: COLO800
COLO829 = tested on: COLO829
G361 = tested on: G361
IPC-298 = tested on: IPC-298
IST-MEL1 = tested on: IST-MEL1
LB2518-MEL = tested on: LB2518-MEL
LOXIMVI = tested on: LOXIMVI
MEL-HO = tested on: MEL-HO

SMILES | cleaved PARP positive nuclei fraction (501Mel) [%] | cleaved PARP positive nuclei fraction (A101D) [%] | cleaved PARP positive nuclei fraction (A2058) [%] | cleaved PARP positive nuclei fraction (A375) [%] | cleaved PARP positive nuclei fraction (C32) [%] | cleaved PARP positive nuclei fraction (CBRC008) [%] | cleaved PARP positive nuclei fraction (CBRC014) [%] | cleaved PARP positive nuclei fraction (CBRC016) [%] | cleaved PARP positive nuclei fraction (CBRC017) [%] | cleaved PARP positive nuclei fraction (CBRC034) [%] | cleaved PARP positive nuclei fraction (COLO792) [%] | cleaved PARP positive nuclei fraction (COLO800) [%] | cleaved PARP positive nuclei fraction (COLO829) [%] | cleaved PARP positive nuclei fraction (G361) [%] | cleaved PARP positive nuclei fraction (IPC-298) [%] | cleaved PARP positive nuclei fraction (IST-MEL1) [%] | cleaved PARP positive nuclei fraction (LB2518-MEL) [%] | cleaved PARP positive nuclei fraction (LOXIMVI) [%] | cleaved PARP positive nuclei fraction (MEL-HO) [%]
CN(c1ncccc1CNc1nc(Nc2ccc3c(c2)CC(=O)N3)ncc1C(F)(F)F)S(C)(=O)=O + C=CCNC1=C2C[C@@H](C)C[C@H](OC)[C@H](O)[C@@H](C)/C=C(\C)[C@H](OC(N)=O)[C@@H](OC)/C=C\C=C(/C)C(=O)NC(=CC1=O)C2=O [Tanespimycin] (first compound 0.08 µM, partner dose 0.002 µM) | 87.1 | 55.5 | 176 | 302 | 51.7 | 84.9 | 90.4 | 67.3 | 83.2 | 103 | 76.6 | 86.3 | 68.4 | 110 | 140 | 336 | 112 | 154 | 71.4
CC(=O)O[C@@]12CO[C@@H]1C[C@H](O)[C@@]1(C)C(=O)[C@H](O)C3=C(C)[C@@H](OC(=O)[C@H](O)[C@@H](NC(=O)OC(C)(C)C)c4ccccc4)C[C@@](O)([C@@H](OC(=O)c4ccccc4)[C@H]21)C3(C)C [Docetaxel] + CC(=O)c1c(C)c2cnc(Nc3ccc(N4CCNCC4)cn3)nc2n(C2CCCC2)c1=O [palbociclib] (first compound 0.0001 µM, partner dose 0.04 µM) | 187 | 126 | 2130 | 1060 | 201 | 257 | 161 | 119 | 416 | 143 | 241 | 275 | 166 | 219 | 437 | 284 | 484 | 86.4 | 182
CC(=O)O[C@@]12CO[C@@H]1C[C@H](O)[C@@]1(C)C(=O)[C@H](O)C3=C(C)[C@@H](OC(=O)[C@H](O)[C@@H](NC(=O)OC(C)(C)C)c4ccccc4)C[C@@](O)([C@@H](OC(=O)c4ccccc4)[C@H]21)C3(C)C [Docetaxel] + COc1ccc(Cl)c(Nc2nc3ccccc3nc2NS(=O)(=O)c2cccc(NC(=O)C(C)(C)N)c2)c1 [XL147] (first compound 0.0001 µM, partner dose 0.8 µM) | 216 | 109 | 2700 | 2010 | 87.5 | 644 | 160 | 308 | 150 | 214 | 411 | 258 | 147 | 383 | 267 | 102 | 259 | 171 | 138
C[C@]1(O)C[C@@H](c2nc(-c3ccc4ccc(-c5ccccc5)nc4c3)c3c(N)nccn32)C1 + Clc1ccc(Nc2nnc(Cc3ccncc3)c3ccccc23)cc1 [vatalanib] (first compound 0.4 µM, partner dose 2 µM) | 190 | 50.2 | 135 | 539 | 80.8 | 161 | 125 | 141 | 137 | 46.5 | 124 | 120 | 92.8 | 179 | 92.9 | 71.8 | 107 | 384 | 191
CS(=O)(=O)c1ccc(C(=O)Nc2ccc(Cl)c(-c3ccccn3)c2)c(Cl)c1 [vismodegib] + CNC(=O)c1cc(Oc2ccc(NC(=O)Nc3ccc(Cl)c(C(F)(F)F)c3)cc2)ccn1 [sorafenib] (first compound 1 µM, partner dose 0.4 µM) | 302 | 277 | 87.1 | 76.8 | 70.2 | 74.9 | 102 | 68.2 | 97.7 | 26.6 | 64.9 | 165 | 90.2 | 131 | 60.9 | 143 | 108 | 130 | 179
C[C@@H](N)c1ccc(C(=O)Nc2ccnc3[nH]ccc23)cc1 + Cn1c(Nc2ccc(C(F)(F)F)cc2)nc2cc(Oc3ccnc(-c4ncc(C(F)(F)F)[nH]4)c3)ccc21 [CHIR265] (first compound 0.4 µM, partner dose 0.08 µM) | 1790 | 278 | 102 | 232 | 51.1 | 101 | 267 | 138 | 116 | 71.2 | 259 | 112 | 136 | 174 | 97.7 | 71.6 | 63.6 | 130 | 75.8
NC1(c2ccc(-c3nc4ccn5c(=O)[nH]nc5c4cc3-c3ccccc3)cc2)CCC1 + CS(=O)(=O)CCNCc1ccc(-c2ccc3ncnc(Nc4ccc(OCc5cccc(F)c5)c(Cl)c4)c3c2)o1 [lapatinib] (first compound 0.4 µM, partner dose 0.8 µM) | 149 | 50.6 | 116 | 94.3 | 81.6 | 97.6 | 93.3 | 40.9 | 152 | 66.7 | 193 | 122 | 107 | 91.6 | 125 | 124 | 116 | 186 | 76.7
